Laboratory results from US20040063662A1, “Selenophene anti-tumor agents” (priority 1996, published 2004).

Tested on: panel of sixty different human tumor cell lines
Experiment: NCI human tumor cell panel: whole panel (mean graph summary)
Conditions: for Delta Log10 TGI: line Delta; for Range Log10 TGI: line Range

Row | SMILES | Delta Log10 TGI | Range Log10 TGI
1 | O=Cc1ccc(-c2ccc(-c3ccc[se]3)[se]2)[se]1 [NSC 675244] | −4.78 | 1.37
2 | OCc1ccc(-c2ccc(-c3cccs3)[se]2)s1 [NSC 675344] | 3.46 | 4.00
3 | O=Cc1ccc(-c2ccc(-c3ccc(C=O)[se]3)s2)[se]1 [NSC 676630] | −4.17 | 2.18^
4 | O=Cc1ccc(-c2ccc(-c3ccc(C=O)s3)[se]2)s1 [NSC 675345] | −4.21 | 1.61^
5 | O=Cc1ccc(-c2ccc(-c3cccs3)[se]2)s1 [NSC 675346] | −4.42 | 3.13^
6 | O=Cc1ccc(-c2ccc(-c3ccc(C=O)[se]3)[se]2)[se]1 [NSC 675245] | −4.18 | 1.91^
